The text below walks through data of PubChem BioAssay AID493014 (National Center for Advancing Translational Sciences (NCATS), 2011).

This is one part of the list. The main result of the screen is listed elsewhere. These columns were measured beside it and carry no call. The list favours compounds with an active or inconclusive main result. Potencies come from curve fits of mixed quality, noted in brackets.

The nature of the test: qHTS Assay to Find Inhibitors of Chronic Active B-Cell Receptor Signaling. To be noted: ABC-DLBCL IkBa-CBG/CBR reporter, luminescence ratio (green luciferase fused to IkBa over red control in TMD8 lymphoma cells), 4 h. In short, it runs like this:
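Cell line TMD8 (human ABC DLBCL), stably expressing tet-inducible CBG68-IkBa fusion and CBR; IMDM/0.5% FBS; cpd up to 46 uM; dox induction, 4 h, 37C/5% CO2; dual luminescence; green/red ratio; MG132 control.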
Background: Quantitative high-throughput screening tests each substance at several concentrations.

The mark [1] stands for this setting: measured here: CBR red luminescence, cell number.
Where [2] appears, read: measured here: IkBa-CBG green luminescence.

For orientation: AC50 means the concentration giving half of the maximal activity seen. For `O=C(NCCCN1CCCC1=O)C1CCN(S(=O)(=O)c2cccc(Cl)c2Cl)CC1`, the AC50 under setting [1] is 23.1 µM [rising, partial curve, poor fit]. In the case of `CCCCOc1ccc(CSc2nncn2N)cc1`, under setting [1], the concentration at half-maximal activity (AC50) is 35.5 µM [rising, single point]. Regarding `CCCCNc1oc(-c2ccc(OC)cc2)nc1S(=O)(=O)c1ccccc1`, the AC50 under setting [1] was 9.2 µM [falling, partial curve]. For the compound `S=c1[nH]nc(-c2ccc(Cl)cc2Cl)n1-c1ccccc1`, the AC50 under setting [1] is 2.24 µM [falling, full curve, poor fit]. With `CNC(=O)c1cc(NC(=O)CCn2nc(-c3ccc(C)cc3)c3ccccc3c2=O)ccc1OC`, under setting [1], the AC50 is 3.16 µM [falling, full curve, poor fit].

On to `Cc1cc(=O)oc2cc(OCC(=O)OCC(=O)NC(=O)NC(C)C)ccc12`, for which, under setting [1], the AC50 was 6.31 µM [rising, single point]. For the compound `CC(C)(C)NCC(O)COc1ccccc1C1CCCC1` (centres undefined), the AC50 under setting [1] was 29.1 µM [falling, single point]. Turning to `Cn1cc(Br)c(C(=O)NNC(=O)Nc2ccccc2C(F)(F)F)n1`, the AC50 under setting [1] was 4.47 µM [falling, partial curve, poor fit].

`O=C(NCc1cccs1)c1ccc(N2CCCC2=O)cc1`: the AC50 under setting [1] is 0.00731 µM [rising, full curve, poor fit]. The same measure, in the same setting: the value for `Cc1cccc(NC(=O)CSc2nc3n[nH]c(C)c3c(=N)n2-c2cccc(Cl)c2)c1` was 12.6 µM [falling, partial curve, poor fit]; that for `Cc1ccc(CSCC(=O)Nc2ccc(F)cc2)cc1` was 11.6 µM [falling, partial curve, poor fit]; that for `Cc1ccc(Nc2nc(-c3ccc(O)cc3O)cs2)nc1` was 12.6 µM [falling, partial curve, poor fit]. On to `CCOc1ccc(NC(=O)c2cnccn2)cc1`, for which the half-maximal activity concentration (AC50) under setting [1] was 11.6 µM [falling, partial curve]. As to `O=C(c1ccccc1S(=O)(=O)NCc1ccccc1)N1CCCC1`, under setting [1], the AC50 is 29.1 µM [rising, single point].

As for `CCC1Oc2ccc(C)cc2N(CC(=O)NCc2cccc(OC)c2)C1=O` (centres undefined), under setting [1], the half-maximal activity concentration (AC50) was 0.1 µM [falling, full curve, poor fit]. On to `CCNC(=O)NNC(=O)C1CC(c2cccs2)=NO1` (centres undefined), for which, under setting [1], the AC50 is 31.6 µM [rising, partial curve, poor fit]. For `Cc1cc(C)n2nc(S(=O)(=O)Nc3c(Cl)cccc3Cl)nc2n1`, under setting [1], the half-maximal activity concentration (AC50) is 0.1 µM [rising, full curve, poor fit]. On to `CCCNC(=O)N1CCN(c2nc(C(C)C)c3c(c2C#N)CC(C)(C)OC3)CC1`, for which the AC50 under setting [1] was 6.51 µM [rising, single point]. Take `COC(=O)CSc1nnc(CNC(=O)c2cc(OC)cc(OC)c2)n1-c1ccc(F)cc1`: under setting [1], the concentration at half-maximal activity (AC50) was 2.82 µM [falling, full curve, poor fit]. Still for that read-out and setting: the value for `O=C(Nc1cccc(O)c1)c1ccc(C(=O)c2ccccc2)o1` was 20 µM [falling, single point]; that for `Cc1sc2ncnc(N3CCC(C(=O)NNC(=O)COc4ccc(Br)cc4)CC3)c2c1C` was 29.1 µM [falling, single point]. On to `O=C(COc1ccccc1)Nc1cccc(-c2nc3ccccc3[nH]2)c1`, for which, under setting [1], the concentration at half-maximal activity (AC50) is 3.26 µM [falling, partial curve]. On to `Cn1c(-c2ccc3ccccc3n2)nc2cnccc21`, for which the half-maximal activity concentration (AC50) under setting [1] was 0.447 µM [rising, full curve, poor fit]. As for `COc1cccc(C(=O)NC(Cc2ccccc2)c2ccc3c(c2)OCCCO3)c1` (centres undefined), under setting [1], the concentration at half-maximal activity (AC50) is 4.11 µM [falling, full curve, poor fit]. Same read-out and setting: the value for `Cc1cc(/C=N/NC(=O)c2cccs2)c(C)n1-c1ccccc1` was 18.4 µM [falling, single point]. As to `Cc1ccc(NC(=O)/C=C/c2ccco2)cc1F`, the AC50 under setting [1] was 10 µM [falling, partial curve, poor fit]. Consider `CCc1nnc(NC(=O)CSc2ccc(-c3ccc(F)cc3)nn2)s1`, for which, under setting [1], the half-maximal activity concentration (AC50) is 7.08 µM [rising, partial curve, poor fit].

On to `CC(C)N1CCC(=NNc2ccc([N+](=O)[O-])cc2S(=O)(=O)N2CCOCC2)CC1`, for which the AC50 under setting [1] was 8.91 µM [rising, partial curve, poor fit]. Turning to `S=C(Nc1ccc(Cl)cc1Cl)NC1CCN(Cc2ccccc2)CC1`, the concentration at half-maximal activity (AC50) under setting [1] is 29.1 µM [falling, single point]. Consider `CCOc1nc2ccccc2cc1C=O`, for which the AC50 under setting [1] is 14.1 µM [rising, single point].

Regarding `Cn1cnc([N+](=O)[O-])c1Sc1ccc(C(C)(C)C)cc1`, the half-maximal activity concentration (AC50) under setting [1] was 12.6 µM [falling, single point]. Turning to `CC1(C)CC(=O)C(C=Nc2ccc3cn[nH]c3c2)=C(O)C1`, the concentration at half-maximal activity (AC50) under setting [1] was 14.1 µM [falling, partial curve] and the AC50 under setting [2] was 11.2 µM [falling, partial curve, poor fit]. As for `O=C1N2CCCc3cccc(c32)C12Nc1ccccc1S2` (centres undefined), under setting [1], the half-maximal activity concentration (AC50) is 2.31 µM [rising, single point]. Still for that read-out and setting: for `CC(C)Sc1nc2ccc(Br)cc2[nH]1` the value was 3.16 µM [rising, full curve, poor fit]; for `CN(C)C=NC1=NN(c2cccc(C(F)(F)F)c2)CC1`, 23.1 µM [rising, single point]. As to `O=C(Nc1ccc2oc(=O)ccc2c1)c1cccnc1`, the concentration at half-maximal activity (AC50) under setting [1] was 13 µM [falling, partial curve].

Consider `COc1cc2c(cc1NC(=O)c1ccncc1)oc1ccccc12`, for which the AC50 under setting [1] is 18.4 µM [falling, single point].

Regarding `Nc1ccc(C(=O)Nc2nccs2)cc1`, under setting [1], the half-maximal activity concentration (AC50) was 22.4 µM [falling, partial curve, poor fit].

For the compound `COc1cc(/C=C(\C#N)c2ccccn2)cc(OC)c1O`, under setting [1], the AC50 is 0.112 µM [falling, full curve, poor fit].

`Cc1c(C(=O)Nc2ccc(Oc3ccccc3)cc2)sc2nc3n(c(=O)c12)CCC3`: the AC50 under setting [1] is 35.5 µM [falling, single point]. The same measure, in the same setting: for `Cn1nnnc1Sc1ncnc2scc(-c3ccccc3)c12` the value was 13 µM [falling, single point]; for `COc1ccc(C)cc1N(C(=O)c1ccccc1)c1nc2ccccc2s1`, 23.1 µM [falling, single point]; for `COc1ccccc1-c1cc(C(=O)N2CCCc3ccccc32)no1`, 20 µM [falling, partial curve, poor fit]. `CCOC(=O)N1CCC2(CC1)C(C#N)=C(N)Oc1c2c(C)nn1-c1cccc(Cl)c1`: the concentration at half-maximal activity (AC50) under setting [1] was 8.2 µM [falling, partial curve, poor fit]. For the compound `CCC(=O)Nc1ccc(NC(=O)CSc2nc3c(c(=O)n(C)c(=O)n3C)n2CC)cc1`, the concentration at half-maximal activity (AC50) runs as follows: under setting [1], 20 µM [rising, single point]; under setting [2], 10 µM [falling, partial curve, poor fit]. `COc1ccc(C2=NOC(C(=O)NCc3cccs3)C2)cc1` (centres undefined): the concentration at half-maximal activity (AC50) under setting [1] was 16.4 µM [falling, partial curve, poor fit]. On the same count and under the same terms, for `O=C(O)CC(NS(=O)(=O)Cc1ccccc1)c1cccc([N+](=O)[O-])c1` (centres undefined) the value was 3.16 µM [rising, single point]; for `CN(CC(=O)Nc1ccccc1Br)C(=O)CNC(=O)c1ccc(Oc2ccccc2)cc1`, 35.5 µM [falling, single point]; for `COC(=O)CNC(=O)CN1C(=O)N(c2cccc(Cl)c2)C(N(O)C(=O)Nc2cccc(Cl)c2)C1(C)C` (centres undefined), 35.5 µM [falling, single point]. Take `C=CCOc1nc2sc(C)c(C)c2c(=O)n1-c1ccccc1`: the AC50 under setting [1] was 11.2 µM [rising, partial curve, poor fit].

As for `C/C(=N\Nc1ncc(Cl)cc1Cl)c1ccc(N2CCOCC2)cc1`, the concentration at half-maximal activity (AC50) is, setting by setting: under setting [1], 35.5 µM [falling, single point]; under setting [2], 20 µM [falling, single point]. As to `COc1ccc(/C=N/Nc2ccc([N+](=O)[O-])cc2)cc1Cn1cc([N+](=O)[O-])cn1`, the AC50 under setting [1] is 6.51 µM [rising, partial curve, poor fit]. On to `CCN(CC(=O)Nc1ccc(NC(C)=O)cc1)C(=O)CCCc1nc2ccccc2s1`, for which the concentration at half-maximal activity (AC50) under setting [1] is 20.6 µM [falling, single point]. In the case of `Cc1cc(Br)cnc1NC(=S)Nc1ccc(F)cc1F`, the half-maximal activity concentration (AC50) under setting [1] was 20 µM [rising, partial curve, poor fit]. Same read-out and setting: for `O=S(=O)(CCc1nc2ccccc2o1)c1ccc(Cl)cc1` the value was 2.06 µM [rising, single point]; for `Nc1ccccc1Oc1ccc2ccccc2c1`, 35.5 µM [rising, single point]. Consider `Cc1ccc(SSc2cc(C)ccc2N)c(N)c1`, for which the AC50 was 29.1 µM [rising, single point] under setting [1] and 20.6 µM [falling, single point] under setting [2]. Consider `COC(=O)N1C(=O)[C@](c2ccc(OC)cc2)(C(C)C)N1C(=O)OC`, for which, under setting [1], the concentration at half-maximal activity (AC50) was 10 µM [falling, partial curve, poor fit]. For the compound `O=C(c1cc(=O)[nH]c2ccccc12)N1CC=C(c2ccccc2)CC1`, under setting [1], the half-maximal activity concentration (AC50) is 8.2 µM [rising, partial curve, poor fit]. Consider `COc1ccc(NC(=O)c2cc3c([nH]c4ccccc43)c(C)n2)cc1`, for which the half-maximal activity concentration (AC50) under setting [1] was 2.91 µM [falling, partial curve, poor fit]. Still for that read-out and setting: the value for `COc1ccccc1-c1cc(C(=O)N2CCN(c3ccc(F)cc3)CC2)no1` was 3.98 µM [falling, full curve]; that for `Cc1cc2c(C)nc(N/N=C/c3ccccc3)nc2o1` was 13 µM [falling, partial curve].

Consider `S=c1[nH]ncn1/N=C/c1cccc(Oc2ccccc2)c1`, for which the AC50 is, setting by setting: under setting [1], 25.9 µM [rising, partial curve, poor fit]; under setting [2], 23.1 µM [falling, single point]. `CCCOc1ccc(C(=O)O)cc1`: the AC50 under setting [1] is 35.5 µM [falling, single point].
